Structures are written as SMILES. Over roughly 1,000 compounds, “thermal shift dTm” has its median near 0.19; the highest 2% begin near 1.7. Some of the results follow. Calls of active or inactive are those of the source.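 How the source made its calls: active means mean rise in melting temperature of at least 1 degC over same-plate control wells; inactive means below that, where a call was filed.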

Sequences of proteins named here, by UniProt entry; tags and fusion partners are left off. A change or cut given only in a name is not applied to a line headed by its entry.
UniProt O00391: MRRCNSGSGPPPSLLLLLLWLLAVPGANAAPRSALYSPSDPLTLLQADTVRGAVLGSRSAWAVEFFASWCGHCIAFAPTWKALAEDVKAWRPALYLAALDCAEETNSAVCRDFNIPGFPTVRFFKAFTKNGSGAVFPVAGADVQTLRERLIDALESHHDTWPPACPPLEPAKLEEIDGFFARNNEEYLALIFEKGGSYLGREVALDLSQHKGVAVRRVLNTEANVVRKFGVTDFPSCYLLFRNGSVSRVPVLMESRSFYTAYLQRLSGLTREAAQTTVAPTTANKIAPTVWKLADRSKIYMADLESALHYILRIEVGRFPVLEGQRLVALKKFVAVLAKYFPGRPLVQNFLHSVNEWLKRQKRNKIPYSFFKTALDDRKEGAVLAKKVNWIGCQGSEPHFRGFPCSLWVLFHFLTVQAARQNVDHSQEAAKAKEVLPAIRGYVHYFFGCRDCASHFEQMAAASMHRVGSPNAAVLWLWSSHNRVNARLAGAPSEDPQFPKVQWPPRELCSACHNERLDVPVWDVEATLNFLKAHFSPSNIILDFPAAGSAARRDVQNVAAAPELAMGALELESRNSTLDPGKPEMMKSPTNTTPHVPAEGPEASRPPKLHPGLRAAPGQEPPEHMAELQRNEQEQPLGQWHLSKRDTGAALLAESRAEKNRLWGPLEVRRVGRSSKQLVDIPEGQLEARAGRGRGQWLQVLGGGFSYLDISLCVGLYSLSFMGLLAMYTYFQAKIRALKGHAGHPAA

In this experiment the target is Sulfhydryl oxidase 1 (Homo sapiens) (UniProt O00391). Kind of experiment: QSOX1 binders by thermal stabilization, confirmation, QSOX1 inhibitor project, biophysical, protein thermal shift, single concentration (AID 1347422).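 Further: dTm is compound Tm minus mean Tm of DMSO-only wells on that plate.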 As to conditions: recombinant hQSOX1 thermal shift, Sypro Orange, at 25 µM, stronger effect = higher value.
`CCCCCCN1C(=O)NC(=O)/C(=C\c2ccccc2Cl)C1=O`: the thermal shift dTm is inactive: -0.13 °C.
Then `O=C(Nc1ccc(Cl)cc1)Nc1nccs1`, with active: 1.39 °C; and `COC(=O)c1cn(CCCOc2ccccc2Cl)c2ccccc12`, with 0.44 °C; and `CCOC(=O)C1=C(NC(=O)c2ccccc2Cl)c2ccccc2CC12CCCCC2`, with 0.17 °C.

The record behind these values is PubChem BioAssay AID1347422 (Sanford-Burnham Center for Chemical Genomics, 2020).
